{"source": "patent US20220168384A1", "about": "“Anti-Bacterial Combination Therapy” (McMaster University, priority 2019, published 2022)", "key": {"[1]": {"assay": "Qualitative assay for antibiotic-Fe3+ coloured complexes", "format": "physicochemical", "conditions": "stock antibiotic + FeCl3 final 10 μM; room temperature 1 h", "method": "[…]. Binding of iron by a compound causes spectral shifts that can detected visually. Five μL of stock concentration antibiotic was added to 5 μL of FeCl3 to a final FeCl3 concentration of 10 μM and incubated at room temperature for one hour. Negative controls without iron are indicated by a negative sign and droplets with FeCl3 are indicated with a positive sign; vehicle controls with Milli-Q H2O and DMSO were included.\nCompounds were arrayed in Nunc 96 microwell plates. Vehicle controls contained Milli-Q H2O with 1:75 dilution of each compound at a final concentration of […]. The experimental set-up contained the same components as the vehicle control, with the addition of […] FeCl3. The final volume in each well was 150 μL. The plate was incubated at room temperature for one hour and absorption spectra from 300 nm to 700 nm was read in 2 nm increments (Multiskan Go—Thermo Fisher Scientific). […]"}, "P. aeruginosa PA14 [2]": {"system": "P. aeruginosa PA14", "assay": "Dose response and checkerboard assays against PA14", "format": "cell-based, Pseudomonas aeruginosa", "method": "(§1) Checkerboard assays were set-up using Nunc 96-well plates in an 8-well by 8-well format. Two columns were allocated for vehicle controls and two columns for sterility controls. Vehicle controls contained 2 μL DMSO plus 2 μL DFP solvent for checkerboards with TS and DFP or 4 μL DMSO for TS and DSX, in 146 μL of 10:90 medium or 10% serum inoculated with PA14 or PAO1-KP as described in Growth Curves. Sterile controls contained the same components in 10:90 medium or 10% serum, without cells. Serial dilutions of TS—with 17 μg/mL being the highest final concentration—were added along the y axis of the checkerboard (increasing concentration from bottom to top) whereas serial dilutions of DFP or DSX—with 512 μg/mL being the highest final concentration—were added along the x axis (increasing concentration from left to right). The final volume of each well was 150 μL and each checkerboard was repeated at least three times. Plates were incubated and the final OD600 determined as detailed above.\nCulture conditions, growth assays, dose response and checkerboard assays using P. aeruginosa PA14 were performed as described in Example 1. Briefly, overnight cultures were grown in LB for 16 h, 37° C., 200 rpm then subcultured (1:500 dilution) into 10:90 for 6 h. Subcultures were standardized to OD600 of 0.10 and diluted 1:500 in fresh 10:90 before use. For the dose response assay, serial dilutions of compounds were added at 75 times the final concentration and diluted with 10:90 with cells to reach the desired final concentration. This was done in triplicate for technical replicates. Vehicle and sterile controls were included. The checkerboard assay was done similarly to the dose response assay but in an 8×8 format in a 96-well Nunc plate, with concentration of one drug increasing along the y-axis and the other along the x-axis. Sterility and vehicle controls were included with two columns allocated for each control. At least three biological replicates were repeated for the dose response and checkerboard assays."}, "[3]": {"system": "P. aeruginosa clinical isolates", "assay": "Clinical isolates testing, P. aeruginosa", "format": "cell-based, Pseudomonas aeruginosa", "conditions": "TS 8.3 and DSX 32 μg/mL", "method": "Clinical isolates of P. aeruginosa and A. baumannii were inoculated from −80° C. stocks into 200 μL LB broth and grown with shaking at 200 rpm, 16 h, 37° C. in Nunc 96-well plates. The overnight cultures were subcultured (1:25 dilution) into 10:90 and grown with shaking at 200 rpm, 2 h, 37° C. Vehicle controls consisted of 4 μL of DMSO, 144 μL 10:90 and 2 μL of subculture. Sterile controls consisted of 4 μL of DMSO and 146 μL 10:90. […]. The final volume of each well was 150 μL and each checkerboard was repeated at least three times. Plates were incubated with shaking at 200 rpm, 16 h, 37° C. and OD600 was measured (Multiskan Go—Thermo Fisher Scientific). The results were plotted as percent of control (wells containing only DMSO) using Prism (GraphPad).\nClinical isolates were grown and tested as described in Example 1. Briefly, clinical isolates were inoculated from glycerol stocks stored at −80° C. into Nunc 96-well plates and grown overnight at 37° C., for 16 h with shaking in LB (200 rpm). Overnights were subcultured (1:25) into fresh 10:90 medium and grown for 2 h under the same growth conditions. Subcultures were diluted 1:75 in fresh 10:90. Compounds were diluted 1:75 to obtain the final concentration. […] The OD600 was read (Multiscan Go—Thermo Fisher Scientific), analyzed using Excel, and the data plotted using Prism (GraphPad). […]"}, "[4]": {"assay": "Chrome azurol S (CAS) plate assay", "format": "physicochemical", "conditions": "10 μL of 2 mg/mL; room temperature 1 h"}, "[5]": {"assay": "UV-Vis absorption spectra assay for iron chelation", "format": "physicochemical", "conditions": "300 μM compound and FeCl3; 300-700 nm; 1 h", "method": "Equimolar concentrations of compound and FeCl3 were added in deionized H2O to a final concentration of 300 μM and a spectrum of wavelengths from 300 nm to 700 nm read after 1 h incubation at room temperature. The black dashed line is the spectrum of the compound in the absence of iron. The black solid line is the spectrum after the addition of iron. […] Chloramphenicol and ampicillin were used as negative controls. Each assay was performed at least 3 times and averaged values are shown.\nCompounds were arrayed in Nunc 96 microwell plates. Vehicle controls contained Milli-Q H2O with 1:75 dilution of each compound at a final concentration of […]. The experimental set-up contained the same components as the vehicle control, with the addition of […] FeCl3. The final volume in each well was 150 μL. The plate was incubated at room temperature for one hour and absorption spectra from 300 nm to 700 nm was read in 2 nm increments (Multiskan Go—Thermo Fisher Scientific)."}, "P. aeruginosa PA14 [6]": {"system": "P. aeruginosa PA14", "assay": "Checkerboards pinned to LB agar (bactericidal activity)", "format": "cell-based, Pseudomonas aeruginosa", "conditions": "overnight 37° C.", "method": "Checkerboards were pinned to LB agar plates using a sterile 96 pin tool. Plates were incubated overnight at 37° C. Independent experiments were conducted 3 times and a representative plate is shown."}, "P. aeruginosa PAO1": {"system": "P. aeruginosa PAO1", "assay": "Checkerboard assays of TS with DFP, DSX or 10% serum", "format": "cell-based, Pseudomonas aeruginosa", "conditions": "10:90", "method": "Human serum (Corning) and mouse serum (Equitech-Bio) were stored at −20° C. Sera were aliquoted into 5-ml culture tubes by thawing once at 37° C. for 30 min with occasional gentle mixing. Culture tubes were frozen at −20° C. until use. To make 10% serum solutions, serum was thawed for 10 min at 37° C. and then heat inactivated at 57° C. for 30 min. Two milliliters of heat-inactivated serum were added to 18 ml of 10:90 medium and gently mixed. This 10% serum solution was used for checkerboard assays.\nas §1, with “The final volume of each well was 150 μL and each checkerboard was repeated at least three times.” left out"}}, "note": "At least one compound was matched to its structure with a doubt left.", "data": [{"smiles": "CC1COc2c(N3CCN(C)CC3)c(F)cc3c(=O)c(C(=O)O)cn1c23", "note": "(centres unmarked) [Ofloxacin]", "values": [{"measurement": "colour change upon addition of FeCl3", "setting": "[1]", "result": "formed orange complexes"}]}, {"smiles": "C[C@H]1c2cccc(O)c2C(=O)C2=C(O)[C@]3(O)C(=O)C(C(N)=O)=C(O)[C@@H](N(C)C)[C@@H]3[C@@H](O)[C@@H]21", "note": "[DOXY, Doxycycline]", "values": [{"measurement": "interaction with DSX", "setting": "P. aeruginosa PA14 [2]; 2D checkerboard", "result": "additive"}, {"measurement": "synergy with DSX", "setting": "P. aeruginosa PA14 [2]; checkerboard of DSX with antibiotic", "result": "No synergy"}, {"measurement": "synergy with TS", "setting": "P. aeruginosa PA14 [2]; checkerboard, IC50 isobolograms, 10:90", "result": "synergized"}, {"measurement": "relative potency of synergy with TS", "setting": "P. aeruginosa PA14 [2]; checkerboards, isobolograms and CI values", "result": "little or no synergy"}, {"measurement": "growth of C0379, triple combinations with TS+DSX at higher concentrations of the compound", "setting": "[3]", "result": "could inhibit its growth"}, {"measurement": "decolourization of CAS agar (relative affinity for iron)", "setting": "[4]", "result": "minimally decolourized"}, {"measurement": "absorption spectrum after addition of FeCl3", "setting": "[5]", "result": "shifted"}, {"measurement": "mode of activity of compound alone", "setting": "P. aeruginosa PA14 [6]", "result": "bacteriostatic"}]}, {"smiles": "O=C(O)c1ccc(-n2nc(-c3ccccc3O)nc2-c2ccccc2O)cc1", "note": "[DSX, deferasirox]", "values": [{"measurement": "effect of chelator on TS activity", "setting": "P. aeruginosa PAO1; checkerboard with TS", "result": "potentiated TS activity"}, {"measurement": "activity of chelator on its own against P. aeruginosa", "setting": "P. aeruginosa PAO1; checkerboard, up to 512 μg/ml", "result": "neither chelator had activity"}, {"measurement": "interaction with GN", "setting": "P. aeruginosa PA14 [2]; checkerboard", "result": "antagonism"}, {"measurement": "colour change upon addition of FeCl3", "setting": "[1]", "result": "dark red/violet"}, {"measurement": "absorption spectrum after addition of FeCl3", "setting": "[5]", "result": "shifted"}]}]}
